{"source": "patent US20240366723A1", "about": "“COMBINATION THERAPY FOR THE TREATMENT OF ENTERIC NEUROPATHIES” (TRANSFERT PLUS, LIMITED PARTNERSHIP, priority 2021, published 2024)", "origin": "cited, not measured here", "conditions": "literature reports, various models; cited from earlier work", "note": "At least one compound was matched to its structure with a doubt left."}
{"smiles": "CC1=C(/C=C/C(C)=C/C=C/C(C)=C/C(=O)O)C(C)(C)CCC1", "note": "[RA, Retinoic Acid]", "values": [{"measurement": "Reported neurotrophic activity", "value": "Retinoic acid regulates murine enteric nervous system"}]}
